Results are given in words; binding and its absence hold for the method and conditions named. Binding seen in cells or lysates may run through a third protein. Some entries that bind do so weakly or less than the wild type.
Assays:
[1] = biological target: Full-length, wild-type recombinant His-tagged TLK1B (human) (UniProt Q9UKI8); assay: pull-down; His-TLK1B incubated with 400 µg of HEK 293 cell lysate on ice 30 min, isolated on Ni-NTA agarose beads, WB for AKTIP; only the target purified
[2] = biological target: endogenous TLK1 (human (endogenous in HEK 293 and LNCaP)) (UniProt Q9UKI8); assay: co-IP; HEK 293 and LNCaP cell lysates, precipitated with TLK1 antiserum, protein A/G agarose beads, WB for AKTIP

Protein sequences, listed by entry. Tags and fused reporters are not part of them. Lines headed by an entry give the natural chain unless they say otherwise; changes in a name come on top. Chains listed by the source or under a name are the forms on record and can include a tag or linker. Residues count along the entry.
UniProt Q9UKI8: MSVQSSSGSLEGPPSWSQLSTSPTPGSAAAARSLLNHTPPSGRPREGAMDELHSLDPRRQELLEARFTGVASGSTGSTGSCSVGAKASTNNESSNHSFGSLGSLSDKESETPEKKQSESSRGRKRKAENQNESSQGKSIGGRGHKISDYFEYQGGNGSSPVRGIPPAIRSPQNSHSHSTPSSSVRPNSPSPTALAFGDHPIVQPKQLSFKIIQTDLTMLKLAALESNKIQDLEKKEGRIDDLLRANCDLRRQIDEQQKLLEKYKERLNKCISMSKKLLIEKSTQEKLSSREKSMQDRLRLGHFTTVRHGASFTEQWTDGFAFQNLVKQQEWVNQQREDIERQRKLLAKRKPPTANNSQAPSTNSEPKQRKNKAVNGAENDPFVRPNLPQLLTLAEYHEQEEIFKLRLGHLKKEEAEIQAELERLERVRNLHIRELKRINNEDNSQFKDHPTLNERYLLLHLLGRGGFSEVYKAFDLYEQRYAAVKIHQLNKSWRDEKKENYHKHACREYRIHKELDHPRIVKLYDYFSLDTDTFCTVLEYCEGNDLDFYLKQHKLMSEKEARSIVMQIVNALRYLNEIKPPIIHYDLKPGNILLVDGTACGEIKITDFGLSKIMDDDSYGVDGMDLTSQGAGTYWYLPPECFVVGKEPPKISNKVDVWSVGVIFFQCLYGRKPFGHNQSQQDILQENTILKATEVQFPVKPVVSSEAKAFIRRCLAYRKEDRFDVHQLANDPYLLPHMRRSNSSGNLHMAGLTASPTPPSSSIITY
Full-length, wild-type recombinant His-tagged TLK1B: residues 218-766 of Q9UKI8

binding [1]: binds
binding [2]: binds
B1: wild-type full-length human GST-AKTIP (natural protein, UniProt Q9H8T0 1-292, looked up)
chain: MNPFWSMSTSSVRKRSEGEEKTLTGDVKTSPPRTAPKKQLPSIPKNALPITKPTSPAPAAQSTNGTHASYGPFYLEYSLLAEFTLVVKQKLPGVYVQPSYRSALMWFGVIFIRHGLYQDGVFKFTVYIPDNYPDGDCPRLVFDIPVFHPLVDPTSGELDVKRAFAKWRRNHNHIWQVLMYARRVFYKIDTASPLNPEAAVLYEKDIQLFKSKVVDSVKVCTARLFDQPKIEDPYAISFSPWNPSVHDEAREKMLTQKKPEEQHNKSVHVAGLSWVKPGSVQPFSKEEKTVAT
notes: also called GST-tagged AKTIP; source: bacterial expression plasmid, recombinant, purified from bacteria according to the published literature

— publication PMC8830441, “Interaction of TLK1 and AKTIP as a Potential Regulator of AKT Activation in Castration-Resistant Prostate Cancer Progression” (Pathophysiology, 2021)
